Source: article doi:10.1101/2025.04.16.649111
Results are given in words; binding and its absence hold for the method and conditions named. Binding seen in cells or lysates may run through a third protein. Here binding means that the protein was enriched with, or labelled near, the bait; the list need not be complete.

Amino acid sequences for entries named in this document (tags omitted).
UniProt P21707: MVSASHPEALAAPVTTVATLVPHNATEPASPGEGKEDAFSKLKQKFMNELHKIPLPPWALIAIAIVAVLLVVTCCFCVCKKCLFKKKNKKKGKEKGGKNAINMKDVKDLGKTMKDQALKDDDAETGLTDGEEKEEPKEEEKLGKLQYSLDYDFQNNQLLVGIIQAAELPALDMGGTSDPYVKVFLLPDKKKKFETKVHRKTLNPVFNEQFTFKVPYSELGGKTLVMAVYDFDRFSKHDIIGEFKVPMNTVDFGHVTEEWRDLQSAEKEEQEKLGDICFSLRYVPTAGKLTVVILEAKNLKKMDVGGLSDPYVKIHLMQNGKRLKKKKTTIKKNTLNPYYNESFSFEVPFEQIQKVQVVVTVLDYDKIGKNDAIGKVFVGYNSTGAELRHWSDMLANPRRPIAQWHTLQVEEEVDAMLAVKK

Molecular target: endogenous Synaptotagmin 1 of primary hippocampal neurons (rat) (rat (endogenous in hippocampal neurons)) (UniProt P21707)
Assay: proximity labelling

- binding: binds
B1: ciliary neurotrophic factor receptor (Cntfr) (receptor, UniProt Q08406 23-342)
chain: QKHSPQEAPHVQYERLGTDVTLPCGTASWDAAVTWRVNGTDLAPDLLNGSQLILRSLELGHSGLYACFHRDSWHLRHQVLLHVGLPPREPVLSCRSNTYPKGFYCSWHLSAPTYIPNTFNVTVLHGSKMMVCEKDPALKNRCHIRYMHLFSTIKYKVSISVSNALGHNTTAITFDEFTIVKPDPPENVVARPVPSNPRRLEVTWQTPSTWPDPESFPLKFFLRYRPLILDQWQHVELSNGTAHTITDAYAGKEYIIQVAAKDNEIGTWSDWSVAAHATPWTEEPRHLTTEAQAPETTTSTTSSLAPPPTTKICDPGELSS
